From article PMC12583727
These are yes or no findings as the source states them, for the method shown. Binding seen in cells or lysates may run through a third protein. These calls come from enrichment with a bait or labelling near it, and not all partners need be listed.

Sequences of proteins named here, by UniProt entry; tags and fusion partners are left off. A change or cut given only in a name is not applied to a line headed by its entry.
UniProt O15550: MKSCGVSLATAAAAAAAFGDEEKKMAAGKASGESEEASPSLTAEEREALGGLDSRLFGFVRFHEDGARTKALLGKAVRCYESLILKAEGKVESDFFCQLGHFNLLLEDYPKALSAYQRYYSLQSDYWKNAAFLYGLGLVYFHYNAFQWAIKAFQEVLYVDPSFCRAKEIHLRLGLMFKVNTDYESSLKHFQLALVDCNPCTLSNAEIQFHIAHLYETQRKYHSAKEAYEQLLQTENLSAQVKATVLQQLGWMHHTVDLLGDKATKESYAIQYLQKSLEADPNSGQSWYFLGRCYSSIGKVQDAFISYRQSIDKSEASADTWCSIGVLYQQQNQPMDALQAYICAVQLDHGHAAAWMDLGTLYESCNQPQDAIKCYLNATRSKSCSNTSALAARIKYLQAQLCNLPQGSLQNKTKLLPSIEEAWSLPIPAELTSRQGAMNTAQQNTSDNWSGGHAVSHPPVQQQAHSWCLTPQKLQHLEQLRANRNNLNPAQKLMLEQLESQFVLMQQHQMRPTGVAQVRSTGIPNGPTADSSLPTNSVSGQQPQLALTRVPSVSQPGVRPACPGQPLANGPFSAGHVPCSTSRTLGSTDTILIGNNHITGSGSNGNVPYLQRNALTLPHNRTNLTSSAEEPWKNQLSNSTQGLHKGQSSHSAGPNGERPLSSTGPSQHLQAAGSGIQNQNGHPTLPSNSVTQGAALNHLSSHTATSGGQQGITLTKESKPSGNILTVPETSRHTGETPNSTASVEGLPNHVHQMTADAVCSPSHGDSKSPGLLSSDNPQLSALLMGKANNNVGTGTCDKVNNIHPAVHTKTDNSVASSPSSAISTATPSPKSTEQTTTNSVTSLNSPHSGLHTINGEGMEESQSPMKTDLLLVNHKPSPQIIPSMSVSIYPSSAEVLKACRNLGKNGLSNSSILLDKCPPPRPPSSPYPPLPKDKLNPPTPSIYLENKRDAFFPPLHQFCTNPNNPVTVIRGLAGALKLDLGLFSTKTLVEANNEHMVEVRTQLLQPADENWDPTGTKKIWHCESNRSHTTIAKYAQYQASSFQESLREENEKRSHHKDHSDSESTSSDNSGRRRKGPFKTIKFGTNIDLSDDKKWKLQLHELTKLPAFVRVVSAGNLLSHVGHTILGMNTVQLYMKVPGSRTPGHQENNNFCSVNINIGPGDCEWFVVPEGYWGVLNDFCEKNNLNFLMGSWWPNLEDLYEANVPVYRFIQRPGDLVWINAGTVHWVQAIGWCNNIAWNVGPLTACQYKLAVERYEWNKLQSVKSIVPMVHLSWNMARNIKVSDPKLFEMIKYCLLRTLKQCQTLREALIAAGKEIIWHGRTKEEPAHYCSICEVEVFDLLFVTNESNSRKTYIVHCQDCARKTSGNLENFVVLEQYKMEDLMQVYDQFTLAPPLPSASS
UniProt P31947: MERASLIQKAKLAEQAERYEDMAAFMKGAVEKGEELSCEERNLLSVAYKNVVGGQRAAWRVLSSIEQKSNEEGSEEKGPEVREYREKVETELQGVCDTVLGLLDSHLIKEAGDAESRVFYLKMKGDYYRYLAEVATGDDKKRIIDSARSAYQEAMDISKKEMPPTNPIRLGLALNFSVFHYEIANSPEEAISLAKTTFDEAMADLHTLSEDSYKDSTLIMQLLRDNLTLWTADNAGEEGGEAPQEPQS

Molecular target: KDM6A^S829D (phospho-mimic, exogenous) (UniProt O15550)
Assay: affinity purification with mass spectrometry; HEK293 cells expressing KDM6A phospho-mutants; precipitation with anti-KDM6A antibody, IgG controls; on-bead tryptic digestion, nanoLC-MS/MS; interactors: fold change > 2 and p < 0.05

Stratifin (SFN), endogenous (from UniProt P31947 1-248)
binding: binds
